Plain letter strings leave the end groups untold.
Test: general procedure: Fmoc solid-phase peptide synthesis; Wang resin (substitution about 0.8 mmole/g), Novabiochem; HBTU/DIEA
Conditions: for crude mass: scale 0.22 mmole
[1] = conjugation step, Method B, 260 nm
[2] = whole synthesis, Method A, 220 nm, scale of the general procedure approximately 0.22 mmole (0.4 g Fmoc-AA-Wang resin)
[3] = whole synthesis, analytical HPLC with UV detection (Method A; Method B at 260 nm), scale of the general procedure approximately 0.22 mmole (0.4 g Fmoc-AA-Wang resin)

Substance | final HPLC purity [1] | final HPLC purity (conjugation step, Method B, diphenyl column) | crude HPLC purity [2] | final HPLC purity [3] | crude mass (whole synthesis) | crude HPLC purity [3]
PADRE:I9V + Oligo 3 | 70-80% pure | ≥70-80% pure | – | – | – | –
PADRE:I9V:K:S9L + Oligo 3 | about 70-80% pure | – | – | – | – | –
AKXVAAWTLKAAAILKEPVHGV | – | – | about 40% purity | ≥85% | Approximately 440 mg | –
Mal-PADRE:I9V | – | – | – | greater than or equal to 85% pure | Approximately 440 mg | about 40% pure
KSSAKXVAAWTLKAAASLYNTVATL | – | – | about 40% Purity | ≥85% | Approximately 400 mg | –
PADRE-I9V + Oligo 2 | 70-80% pure | – | – | – | – | –
